Reference: PubChem BioAssay (NCATS)
Inconclusive results, whose numbers are uncertain, are shown with a selection of clear calls. Where the call is inconclusive, the potency comes from a doubtful curve fit. The source made the active and inactive calls. Calls follow the shape of the dose curve; as a rule, active = well fitted activation curve with a large enough effect; inconclusive = small, poorly fitted or top-dose-only effect, or another doubt; inactive = no such curve, though single readings can be large or run the other way.

What follows are compounds tested against Rap guanine nucleotide exchange factor 3 (Homo sapiens) (UniProt O95398) (assay: Counterscreen qHTS for agonist of cAMP-regulated guanine nucleotide exchange factor 3 (EPAC1) (AID 1645889; also: nearly all actives have a fitted effect of over 40% in size; as to activation: % of control where 0% means no effect)). Details: EPAC1 Rap1B-BODIPY-GDP exchange, fluorescence; activation: at 154 µM (top of the series) unless noted.
Procedure, shortened: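 Rap1B–BODIPY-GDP (250 nM) with 50 uM GDP; compounds pin-transferred to 9.74 nM–152 uM final (activator) or from 7.32 nM upwards (inhibitor). Fluorescence Ex/Em 480/540 nm read at 5 and 30 min, then after adding cAMP or buffer, at room temperature.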
Potency is read from the fitted curve at half-maximal effect.

| SMILES | Potency | activation |
| --- | --- | --- |
| Oc1ccc(Br)cc1CNc1cccc2cccnc12 | inconclusive: 4.47 µM [activator, full curve, poor fit] | – |
| CCN1C(=O)c2cccc3c(N)ccc(c23)C1=O | active: 35.5 µM | – |
| CC(NC1=CC(=O)c2cccnc2C1=O)C(O)c1ccccc1 (stereo unspecified) | inconclusive: 10 µM [activator, full curve, poor fit] | – |
| CCOC(=O)[C@H]1[C@H]2COc3ccc(C)cc3[C@@H]2N2C(=O)c3ccc(C)cc3NC(=O)[C@@]12C | inconclusive: 0.282 µM [activator, full curve, poor fit] | – |
| N#C/C(=C\c1ccc(N2CCOCC2)o1)c1nc2ccccc2[nH]1 | active: 39.8 µM | – |
| Cc1ccc2oc(=O)c(/C=C(\O)c3ccco3)nc2c1 | – | inconclusive: 58.2% [activator] |
